# PubChem BioAssay AID1159597 – NIAID, 2016
# Assay: 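Which TLR pathway components are needed for LPS-driven TNF promoter activity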
# System: human THP-1 B5 reporter clone (monocytic leukaemia line), PMA-differentiated to macrophage-like cells
# Reagents: single siRNA against human genes
# Time to read-out: LPS for 4 h before read-out; assayed 48 to 72 h after siRNA transfection
# Treatment: LPS (Salmonella minnesota R595) for 4 h; concentration not given
# Read-out: 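After 4 h LPS, firefly TNF promoter luciferase over renilla, as a plate median/MAD robust z-score averaged across replicates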
# Reading the numbers: TNF reporter z-score: higher = stronger TNF promoter activity after LPS
# Hit rule: In these data the active calls have TNF reporter z-score, replicate mean at about -1.5 or lower, or at about 1.53 or higher
# Calls: active = clear shift in reporter, either direction; inactive = little shift in reporter
# Here is an unselected part of 756 deposited reagents. 140 of them (19%) were called active. 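Calls mark clear shifts in either direction, lowered or raised; calls are per siRNA, gene-level medians over six siRNAs not deposited.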 The numbers tell different reagents against one gene apart. Not given: the amount of reagent.
gene symbol,siRNA no.,"TNF reporter z-score, replicate mean",call
TOLLIP (toll interacting protein),1,-1.18,inactive
TOLLIP (toll interacting protein),2,-0.538,inactive
TOLLIP (toll interacting protein),3,-0.0064,inactive
TOLLIP (toll interacting protein),4,-2.91,active
TOLLIP (toll interacting protein),5,-0.499,inactive
TOLLIP (toll interacting protein),6,-0.843,inactive
CHUK,1,0.036,inactive
CHUK,2,-2.08,active
CHUK,3,0.0257,inactive
CHUK,4,-0.224,inactive
CHUK,5,-1.07,inactive
CHUK,6,0.441,inactive
CCL3 (C-C motif chemokine ligand 3),1,-1.28,inactive
CCL3 (C-C motif chemokine ligand 3),2,-0.192,inactive
CCL3 (C-C motif chemokine ligand 3),3,-0.65,inactive
CCL3 (C-C motif chemokine ligand 3),4,-0.617,inactive
CCL3 (C-C motif chemokine ligand 3),5,0.87,inactive
CCL3 (C-C motif chemokine ligand 3),6,-1.25,inactive
AKT3 (AKT serine/threonine kinase 3),1,-0.111,inactive
AKT3 (AKT serine/threonine kinase 3),2,-1.62,active
AKT3 (AKT serine/threonine kinase 3),3,0.443,inactive
AKT3 (AKT serine/threonine kinase 3),4,0.523,inactive
AKT3 (AKT serine/threonine kinase 3),5,-0.668,inactive
AKT3 (AKT serine/threonine kinase 3),6,0.537,inactive
IRAK2 (interleukin 1 receptor associated kinase 2),1,-0.418,inactive
IRAK2 (interleukin 1 receptor associated kinase 2),2,1.97,active
IRAK2 (interleukin 1 receptor associated kinase 2),3,-0.0728,inactive
IRAK2 (interleukin 1 receptor associated kinase 2),4,0.265,inactive
IRAK2 (interleukin 1 receptor associated kinase 2),5,-0.206,inactive
IRAK2 (interleukin 1 receptor associated kinase 2),6,1.34,inactive
MAPK9 (mitogen-activated protein kinase 9),1,-0.701,inactive
MAPK9 (mitogen-activated protein kinase 9),2,-1.82,active
MAPK9 (mitogen-activated protein kinase 9),3,0.651,inactive
MAPK9 (mitogen-activated protein kinase 9),4,0.505,inactive
MAPK9 (mitogen-activated protein kinase 9),5,-0.751,inactive
MAPK9 (mitogen-activated protein kinase 9),6,0.702,inactive
TAB3 (TGF-beta activated kinase 1 (MAP3K7) binding protein 3),1,-0.7,inactive
TAB3 (TGF-beta activated kinase 1 (MAP3K7) binding protein 3),2,-0.613,inactive
TAB3 (TGF-beta activated kinase 1 (MAP3K7) binding protein 3),3,-0.391,inactive
TAB3 (TGF-beta activated kinase 1 (MAP3K7) binding protein 3),4,0.591,inactive
TAB3 (TGF-beta activated kinase 1 (MAP3K7) binding protein 3),5,0.574,inactive
TAB3 (TGF-beta activated kinase 1 (MAP3K7) binding protein 3),6,0.214,inactive
TLR4 (toll like receptor 4),1,-4.47,active
TLR4 (toll like receptor 4),2,-5.76,active
TLR4 (toll like receptor 4),3,-4.76,active
TLR4 (toll like receptor 4),4,-4.5,active
TLR4 (toll like receptor 4),5,-1.2,inactive
TLR4 (toll like receptor 4),6,-3.41,active
PTPN6 (protein tyrosine phosphatase non-receptor type 6),1,-1.37,inactive
PTPN6 (protein tyrosine phosphatase non-receptor type 6),2,0.942,inactive
PTPN6 (protein tyrosine phosphatase non-receptor type 6),3,-0.431,inactive
PTPN6 (protein tyrosine phosphatase non-receptor type 6),4,-1.52,active
PTPN6 (protein tyrosine phosphatase non-receptor type 6),5,-1.45,inactive
PTPN6 (protein tyrosine phosphatase non-receptor type 6),6,-0.301,inactive
TBK1 (TANK binding kinase 1),1,-1.11,inactive
TBK1 (TANK binding kinase 1),2,0.22,inactive
TBK1 (TANK binding kinase 1),3,0.151,inactive
TBK1 (TANK binding kinase 1),4,0.923,inactive
TBK1 (TANK binding kinase 1),5,-0.00024,inactive
TBK1 (TANK binding kinase 1),6,-0.32,inactive
IKBKE (inhibitor of nuclear factor kappa B kinase subunit epsilon),1,0.721,inactive
IKBKE (inhibitor of nuclear factor kappa B kinase subunit epsilon),2,-1.19,inactive
IKBKE (inhibitor of nuclear factor kappa B kinase subunit epsilon),3,0.397,inactive
IKBKE (inhibitor of nuclear factor kappa B kinase subunit epsilon),4,1.17,inactive
IKBKE (inhibitor of nuclear factor kappa B kinase subunit epsilon),5,-2.63,active
IKBKE (inhibitor of nuclear factor kappa B kinase subunit epsilon),6,-2.62,active
CXCL11 (C-X-C motif chemokine ligand 11),1,-2.75,active
CXCL11 (C-X-C motif chemokine ligand 11),2,-0.026,inactive
CXCL11 (C-X-C motif chemokine ligand 11),3,0.265,inactive
CXCL11 (C-X-C motif chemokine ligand 11),4,-0.46,inactive
CXCL11 (C-X-C motif chemokine ligand 11),5,-1.55,active
CXCL11 (C-X-C motif chemokine ligand 11),6,-0.39,inactive
MYD88 (MYD88 innate immune signal transduction adaptor),1,-5.08,active
MYD88 (MYD88 innate immune signal transduction adaptor),2,-1.66,active
MYD88 (MYD88 innate immune signal transduction adaptor),3,-2.93,active
MYD88 (MYD88 innate immune signal transduction adaptor),4,-2.24,active
MYD88 (MYD88 innate immune signal transduction adaptor),5,0.564,inactive
MYD88 (MYD88 innate immune signal transduction adaptor),6,-1.07,inactive
TLR5 (toll like receptor 5),1,-3.64,active
TLR5 (toll like receptor 5),2,-1.08,inactive
TLR5 (toll like receptor 5),3,0.0685,inactive
TLR5 (toll like receptor 5),4,-1.07,inactive
TLR5 (toll like receptor 5),5,-2.69,active
TLR5 (toll like receptor 5),6,0.429,inactive
"FOS (Fos proto-oncogene, AP-1 transcription factor subunit)",1,0.251,inactive
"FOS (Fos proto-oncogene, AP-1 transcription factor subunit)",2,-0.259,inactive
"FOS (Fos proto-oncogene, AP-1 transcription factor subunit)",3,1.22,inactive
"FOS (Fos proto-oncogene, AP-1 transcription factor subunit)",4,-0.22,inactive
"FOS (Fos proto-oncogene, AP-1 transcription factor subunit)",5,1.07,inactive
"FOS (Fos proto-oncogene, AP-1 transcription factor subunit)",6,2.21,active
TRAF6 (TNF receptor associated factor 6),1,-1.79,active
TRAF6 (TNF receptor associated factor 6),2,-3.16,active
TRAF6 (TNF receptor associated factor 6),3,-2.11,active
TRAF6 (TNF receptor associated factor 6),4,-1.34,inactive
TRAF6 (TNF receptor associated factor 6),5,-1.9,active
TRAF6 (TNF receptor associated factor 6),6,-1.82,active
TICAM2 (TIR domain containing adaptor molecule 2),1,-1.42,inactive
TICAM2 (TIR domain containing adaptor molecule 2),2,-1.41,inactive
TICAM2 (TIR domain containing adaptor molecule 2),3,-1.33,inactive
TICAM2 (TIR domain containing adaptor molecule 2),4,0.943,inactive
TICAM2 (TIR domain containing adaptor molecule 2),5,-1.69,active
TICAM2 (TIR domain containing adaptor molecule 2),6,-0.919,inactive
LBP (lipopolysaccharide binding protein),1,-0.499,inactive
LBP (lipopolysaccharide binding protein),2,-0.516,inactive
LBP (lipopolysaccharide binding protein),3,0.152,inactive
LBP (lipopolysaccharide binding protein),4,-0.16,inactive
LBP (lipopolysaccharide binding protein),5,0.511,inactive
LBP (lipopolysaccharide binding protein),6,-2.32,active
IL12B (interleukin 12B),1,-0.0331,inactive
IL12B (interleukin 12B),2,-0.664,inactive
IL12B (interleukin 12B),3,-1.25,inactive
IL12B (interleukin 12B),4,-1.9,active
IL12B (interleukin 12B),5,-0.137,inactive
IL12B (interleukin 12B),6,-0.935,inactive
TLR6 (toll like receptor 6),1,-0.0987,inactive
TLR6 (toll like receptor 6),2,1.33,inactive
TLR6 (toll like receptor 6),3,-0.315,inactive
TLR6 (toll like receptor 6),4,-0.579,inactive
TLR6 (toll like receptor 6),5,-2.13,active
TLR6 (toll like receptor 6),6,-1.6,active
MAPK3 (mitogen-activated protein kinase 3),1,-0.419,inactive
MAPK3 (mitogen-activated protein kinase 3),2,-1.28,inactive
MAPK3 (mitogen-activated protein kinase 3),3,-1.04,inactive
MAPK3 (mitogen-activated protein kinase 3),4,0.137,inactive
MAPK3 (mitogen-activated protein kinase 3),5,0.161,inactive
MAPK3 (mitogen-activated protein kinase 3),6,-2,active
NFKBIA (NFKB inhibitor alpha),1,0.0248,inactive
NFKBIA (NFKB inhibitor alpha),2,-0.163,inactive
NFKBIA (NFKB inhibitor alpha),3,0.758,inactive
NFKBIA (NFKB inhibitor alpha),4,-1.91,active
NFKBIA (NFKB inhibitor alpha),5,-1.58,active
NFKBIA (NFKB inhibitor alpha),6,-0.306,inactive
FADD (Fas associated via death domain),1,0.237,inactive
FADD (Fas associated via death domain),2,-0.55,inactive
FADD (Fas associated via death domain),3,-0.0423,inactive
FADD (Fas associated via death domain),4,-1.07,inactive
FADD (Fas associated via death domain),5,-0.712,inactive
FADD (Fas associated via death domain),6,-2.13,active
MAPKAPK2 (MAPK activated protein kinase 2),1,-0.367,inactive
MAPKAPK2 (MAPK activated protein kinase 2),2,-0.33,inactive
MAPKAPK2 (MAPK activated protein kinase 2),3,-0.706,inactive
MAPKAPK2 (MAPK activated protein kinase 2),4,-1.13,inactive
MAPKAPK2 (MAPK activated protein kinase 2),5,0.488,inactive
MAPKAPK2 (MAPK activated protein kinase 2),6,-0.529,inactive

22 entries from above, arranged by “TNF reporter z-score, replicate mean”, highest first:
gene symbol,siRNA no.,"TNF reporter z-score, replicate mean",call
TICAM2 (TIR domain containing adaptor molecule 2),4,0.943,inactive
LBP (lipopolysaccharide binding protein),5,0.511,inactive
LBP (lipopolysaccharide binding protein),3,0.152,inactive
IL12B (interleukin 12B),1,-0.0331,inactive
LBP (lipopolysaccharide binding protein),4,-0.16,inactive
LBP (lipopolysaccharide binding protein),1,-0.499,inactive
LBP (lipopolysaccharide binding protein),2,-0.516,inactive
IL12B (interleukin 12B),2,-0.664,inactive
TICAM2 (TIR domain containing adaptor molecule 2),6,-0.919,inactive
IL12B (interleukin 12B),3,-1.25,inactive
TICAM2 (TIR domain containing adaptor molecule 2),3,-1.33,inactive
TRAF6 (TNF receptor associated factor 6),4,-1.34,inactive
TICAM2 (TIR domain containing adaptor molecule 2),2,-1.41,inactive
TICAM2 (TIR domain containing adaptor molecule 2),1,-1.42,inactive
TICAM2 (TIR domain containing adaptor molecule 2),5,-1.69,active
TRAF6 (TNF receptor associated factor 6),1,-1.79,active
TRAF6 (TNF receptor associated factor 6),6,-1.82,active
TRAF6 (TNF receptor associated factor 6),5,-1.9,active
IL12B (interleukin 12B),4,-1.9,active
TRAF6 (TNF receptor associated factor 6),3,-2.11,active
LBP (lipopolysaccharide binding protein),6,-2.32,active
TRAF6 (TNF receptor associated factor 6),2,-3.16,active
